Source: US20250277022A1
No constants are given. Whether binding was seen depends on the method and setting. Some results given as binding are weak or reduced against the parent protein; the word gives no strength.

B1: TSLP-04 (antibody, V domains shown)
V domain 1: QEQLVQSGDEVKKPGASVKVSCKSSGFTFGSYAISWVRQAPGQGLEWMGMLVPLLGVTNYAEKFQGRVTITADPSTTTTSMELSSLRSEDTAVYYCARGGSNYLYWYFDLWGPGTPITVSS
V domain 2: QSAPIQPRSVSGSPGQSVTISCTGTSSDIGGYNRISWYQQHPGKAPKLMIYDVSKRPSGVSDRFSGSKSGNTASLTISGLQAEDEADYYCSSYAGTDTFVLFGGGTQLTIV
B2: TSLP-02 (antibody, V domains shown)
VH: QVQLVQSGAEVKKPGSSVKVSCKASGFTFGSYGINWVRQAPGQGLEWLGVIVPLVGVTIYAEKFQGRVTITADTSTSTAYMELSSLRSEDTAVYYCARGQEYFYWYFDLWGQGTLVTVSS
VL: QSALTQPPSASGSPGQSVTISCSGSSSDIGGYNRVSWYQQHPGKAPKLMIYDVSKRPSGVPDRFSGSKSGNTASLTVSGLQAEDEADYYCSSYAGTDTFILFGGGTKLTVL
B3: TSLP-03 (antibody, V domains shown)
VH: EVQLVESGGGLVQPGGSLRLSCAASGFTFSNYDMTWVRQAPGKGLEWVSSITFASSYIYYADSVKGRFTISRDNAKNSLSLQMNSLRAEDTAVYYCTRGGGAYHGGSLDVWGQGVLVTVSS
VL: DIVMTQTPLSLSVTPGEPASISCRSSQSLLHINGYTYLHWYLQKPGQSPQLLIYLVSHRASGVPDRFSGSGSDTDFTLKISRVEAEDVGVYYCEQTLQTPYSFGGGTKVEIK
B4: TSLP-0108 (antibody, V domains shown)
VH: QVQLQESGPGLVKPSETLSLTCAVSGYSISSGYGWSWIRQPPGKGLEWIGYISYYGSTSYNPSLKSRVTISRDTSKNQFSLKLSSVTAADTAVYYCARTNLLYFDSWGQGTLVTVSS
VL: EIVMTQSPATLSLSPGERATLSCRASQSVSNNLAWYQQKPGQAPRLLIYDASSRATGIPARFSGSGSGTDFTLTISSLEPEDFAVYYCQQYSDWPEYSFGQGTKVEIK
B5: TSLP-0112 (antibody, V domains shown)
VH: QVQLQESGPGLVKPSETLSLTCAVSGYSISSGYGWSWIRQPPGKGLEWIGYISYYGSTSYNPSLKSRVTISRDTSKNQFSLKLSSVTAADTAVYYCARTNLLYFDYWGQGTLVTVSS
VL: EIVMTQSPATLSLSPGERATLSCRASQSVSSYLAWYQQKPGQAPRLLIYDASSRATGIPARFSGSGSGTDFTLTISSLEPEDFAVYYCQQYSDWPQYSFGQGTKVEIK
B6: TSLP-0111 (antibody, V domains shown)
VH: QVQLQESGPGLVKPSETLSLTCAVSGYSISSGYGWSWIRQPPGKGLEWIGYFSYYGSTSYNPSLKSRVTISRDTSKNQFSLKLSSVTAADTAVYYCARTNLLYFDSWGQGTLVTVSS
VL: EIVMTQSPATLSLSPGERATLSCRASQSVSSNLAWYQQKPGQAPRLLIYDASSRATGIPARFSGSGSGTDFTLTISSLEPEDFAVYYCQQYSNWPQYSFGQGTKVEIK
B7: TSLP-0109 (antibody, V domains shown)
VH: QVQLQESGPGLVKPSETLSLTCAVSGYSISSGYGWSWIRQPPGKGLEWIGYISYYGSTSYNPSLKSRVTISRDTSKNQFSLKLSSVTAADTAVYYCARTNLLYFESWGQGTLVTVSS
VL: EIVMTQSPATLSLSPGERATLSCRASQGISSYLAWYQQKPGQAPRLLIYDASNLQSGIPARFSGSGSGTDFTLTISSLEPEDFAVYYCQQYSNWPQYSFGQGTKVEIK
B8: TSLP-0110 (antibody, V domains shown)
VH: QVQLQESGPGLVKPSETLSLTCAVSGYSISSGYGWSWIRQPPGKGLEWIGYISYYGSTSYNPSLKSRVTISRDTSKNQFSLKLSSVTAADTAVYYCARTNLLYFDSWGQGTLVTVSS
VL: EIVMTQSPATLSLSPGERATLSCRASQSVSSYLAWYQQKPGQAPRLLIYDTSSRATGIPARFSGSGSGTDFTLTISSLEPEDFAVYYCQQYSNWPQYSFGQGTKVEIK
B9: TSLP-0401 (antibody, V domains shown)
V domain 1: QEQLVQSGDEVKKPGASVKVSCKSSGFTFGSYAISWVRQAPGQGLEWMGMIIPLLGVTDYAEKFQGRVTITADPSTTTTSMELSSLRSEDTAVYYCARGGTNYLYWYFDLWGPGTPITVSS
V domain 2: QSAPIQPRSVSGSPGQSVTISCTGTSSDIGGYNRVSWYQQHPGKAPKLMIYEVSKRPSGVSDRFSGSKSGNTASLTISGLQAEDEADYYCSAYAGTDTFVLFGGGTQLTIV
B10: TSLP-0205 (antibody, V domains shown)
VH: QVQLVQSGAEVKKPGSSVKVSCKASGFTFGSYGINWVRQAPGQGLEWLGVIVPLVGVTIYAEKFQGRVTITADTSTSTAYMELSSLRSEDTAVYYCARGQEYFYWYFDLWGQGTLVTVSS
VL: QSALTQPPSASGSPGQSVTISCTGTTSDIGGYNRVSWYQQHPGKAPKLMIYEVSKRPSGVPDRFSGSKSGNTASLTVSGLQAEDEADYYCSSYAGTDTFAIFGGGTKLTVL
B11: TSLP-0204 (antibody, V domains shown)
VH: QVQLVQSGAEVKKPGSSVKVSCKASGFTFGSYGINWVRQAPGQGLEWLGVIVPLVGVTIYAEKFQGRVTITADTSTSTAYMELSSLRSEDTAVYYCARGQEYFYWYFDLWGQGTLVTVSS
VL: QSALTQPPSASGSPGQSVTISCTGTSSDIGGYNRVSWYQQHPGKAPKLMIYEVNKRSSGVPDRFSGSKSGNTASLTVSGLQAEDEADYYCTSYAGTDTFVLFGGGTKLTVL
B12: TSLP-0203 (antibody, V domains shown)
VH: QVQLVQSGAEVKKPGSSVKVSCKASGFTFGSYGINWVRQAPGQGLEWLGVIVPLVGVTIYAEKFQGRVTITADTSTSTAYMELSSLRSEDTAVYYCARGQEYFYWYFDLWGQGTLVTVSS
VL: QSALTQPPSASGSPGQSVTISCTGTSSDIGGYDRVSWYQQHPGKAPKLMIYGVSKRPSGVPDRFSGSKSGNTASLTVSGLQAEDEADYYCSSYASGHTFGLFGGGTKLTVL
B13: TSLP-0202 (antibody, V domains shown)
VH: QVQLVQSGAEVKKPGSSVKVSCKASGFTFGSYGINWVRQAPGQGLEWMGVIVPLVGVTIYAEKFQGRVTITADESTSTAYMELSSLRSEDTAVYYCARGQEYFYWYFDLWGQGTLVTVSS
VL: QSALTQPPSASGSPGQSVTISCSGSSSDIGGYNRVSWYQQHPGKAPKLMIYDVSKRPSGVPDRFSGSKSGNTASLTVSGLQAEDEADYYCSSYAGTDTFILFGGGTKLTVL
B14: TSLP-0206 (antibody, V domains shown)
VH: QVQLVQSGAEVKKPGSSVKVSCKASGFTFGSYGISWVRQAPGQGLEWLGVIVPLVDVTIYAEKFQGRVTITADTSTSTAYMELSSLRSEDTAVYYCARGQEYFYWYFDLWGQGTLVTVSS
VL: QSALTQPPSASGSPGQSVTISCTGTISDIGGYNRVSWYQQHPGKAPKLMIYEVSKRPSGVPDRFSGSKSGNTASLTVSGLQAEDEADYYCSSYAGTDTFVFFGGGTKLTVL
B15: TSLP-0207 (antibody, V domains shown)
VH: QVQLVQSGAEVKKPGSSVKVSCKASGFTFGSYGISWVRQAPGQGLEWLGVIVPLVGVTIYAEKFQGRVTITADTSTSTAYMELSSLRSEDTAVYYCARGQEYFYWYFDLWGQGTLVTVSS
VL: QSALTQPPSASGSPGQSVTISCTGTSSDIGGYNRVSWYQQHPGKAPKLMIYEFNKRPSGVPDRFSGSKSGNTASLTVSGLQAEDEADYYCSSYAGTDIFVLFGGGTKLTVL
B16: TSLP-0201 (antibody, V domains shown)
VH: QVQLVQSGAEVKKPGSSVKVSCKASGFTFGSYGINWVRQAPGQGLEWMGVIVPLVGVTIYAEKFQGRVTITADTSTSTAYMELSSLRSEDTAVYYCARGQEYFYWYFDLWGQGTLVTVSS
VL: QSALTQPPSASGSPGQSVTISCSGSSSDIGGYNRVSWYQQHPGKAPKLMIYDVSKRPSGVPDRFSGSKSGNTASLTVSGLQAEDEADYYCSSYAGTDTFILFGGGTKLTVL
B17: TSLP-0208 (antibody, V domains shown)
VH: QVQLVQSGAEVKKPGSSVKVSCKASGFTFGSYGISWVRQAPGQGLEWLGVIIPLLGVPNYAEKFQGRVTITADTSTSTAYMELSSLRSEDTAVYYCARGAEYFYWYFDLWGQGTLVTVSS
VL: QSALTQPPSASGSPGQSVTISCTGSNSDIGGYNRVSWYQQHPGKAPKLMIYEISKRPSGVPDRFSGSKSGNTASLTVSGLQAEDEADYYCSSYAGTDTFVLFGGGTKLTVL
B18: TSLP-0302 (antibody, V domains shown)
VH: EVQLVESGGGLVQPGGSLRLSCAASGFTFSNYGMTWVRQAPGKGLEWVSSITFASSYIYYADSVKGRFTISRDNAKNSLSLQMNSLRAEDTAVYYCTRGGGAYYGGSLDVWGQGVLVTVSS
VL: DIVMTQTPLSLSVTPGEPASISCRSSQSLLHSYGYTYLHWYLQKPGQSPQLLIYLVSYRASGVPDRFSGSGSDTDFTLKISRVEAEDVGVYYCEQTLQTPYTFGGGTKVEIK
B19: TSLP-0301 (antibody, V domains shown)
VH: EVQLVESGGGLVQPGGSLRLSCAASGFTFSNYDMTWVRQAPGKGLEWVSSITFASSYIYYADSVKGRFTISRDNAKNSLSLQMNSLRAEDTAVYYCTRGGGAYYGGSLDVWGQGVLVTVSS
VL: DIVMTQTPLSLSVTPGEPASISCRSSQSLLHSNEYTYLHWYLQKPGQSPQLLIYLVSHRASGVPDRFSGSGSDTDFTLKISRVEAEDVGVYYCEQTLQTPFTFGGGTKVEIK

Each binder was assayed against cynomolgus monkey TSLP (cynomolgus monkey) (assay: ELISA, antigen coated, IgG1).

binding, binds:
B1
B2
B3

Each binder was assayed against cynomolgus monkey TSLP (cynomolgus monkey) (assay: ELISA, plate coated with cynomolgus monkey TSLP, test antibodies as human IgG1).

binding, binds:
B4
B5
B6
B7
B8
B9
B10
B11
B2
B12
B13
B14
B15
B16
B17
B3
B18
B19
